Results on one molecule are retold here after patent publication US20050028229A1 (published 2005).

Sequences of proteins named here, by UniProt entry; tags and fusion partners are left off.
UniProt P01942: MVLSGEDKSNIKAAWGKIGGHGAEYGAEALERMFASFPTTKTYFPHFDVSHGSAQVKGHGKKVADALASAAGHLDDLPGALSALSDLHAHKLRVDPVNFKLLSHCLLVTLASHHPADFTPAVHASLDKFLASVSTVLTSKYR

Results are given in words; binding and its absence hold for the method and conditions named. Binding seen in cells or lysates may run through a third protein. Some entries that bind do so weakly or less than the wild type. Sequences can lack the tags named with a protein.

The target in the assay is hemagglutinin (HA)-tagged murine α-hemoglobin (murine) (UniProt P01942). The experiment in a line: co-immunoprecipitation from COS cell extracts, western blot.

B1: V5-epitope-tagged murine AHSP (protein, UniProt Q9CY02 1-102, looked up, not shown: small tags and cut ends)
chain: MAPFQSNKDLISTGIKEFNVLLDQQVFDDPLISEEDMVIVVHDWVNLYTNYYKKLVHGEQEEQDRAMTEFQQELSTLGSQFLAKYRTFLKSKEPPSNTLPSS
For the molecule B1, the binding result is reported as “binds”.
